For one substance, binding results are on record in publication PMC12786336.

Protein sequences, listed by entry. Tags and fused reporters are not part of them.
UniProt Q62093: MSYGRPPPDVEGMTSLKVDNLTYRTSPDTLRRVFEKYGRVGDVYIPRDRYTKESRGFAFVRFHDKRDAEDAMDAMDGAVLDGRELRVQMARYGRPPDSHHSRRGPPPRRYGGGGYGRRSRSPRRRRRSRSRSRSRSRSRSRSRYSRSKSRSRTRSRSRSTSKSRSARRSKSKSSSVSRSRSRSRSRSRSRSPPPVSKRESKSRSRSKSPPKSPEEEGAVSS

This test deals with T1, N-acetyltransferase 10 (NAT10) (UniProt Q8K224).
T1 sequence: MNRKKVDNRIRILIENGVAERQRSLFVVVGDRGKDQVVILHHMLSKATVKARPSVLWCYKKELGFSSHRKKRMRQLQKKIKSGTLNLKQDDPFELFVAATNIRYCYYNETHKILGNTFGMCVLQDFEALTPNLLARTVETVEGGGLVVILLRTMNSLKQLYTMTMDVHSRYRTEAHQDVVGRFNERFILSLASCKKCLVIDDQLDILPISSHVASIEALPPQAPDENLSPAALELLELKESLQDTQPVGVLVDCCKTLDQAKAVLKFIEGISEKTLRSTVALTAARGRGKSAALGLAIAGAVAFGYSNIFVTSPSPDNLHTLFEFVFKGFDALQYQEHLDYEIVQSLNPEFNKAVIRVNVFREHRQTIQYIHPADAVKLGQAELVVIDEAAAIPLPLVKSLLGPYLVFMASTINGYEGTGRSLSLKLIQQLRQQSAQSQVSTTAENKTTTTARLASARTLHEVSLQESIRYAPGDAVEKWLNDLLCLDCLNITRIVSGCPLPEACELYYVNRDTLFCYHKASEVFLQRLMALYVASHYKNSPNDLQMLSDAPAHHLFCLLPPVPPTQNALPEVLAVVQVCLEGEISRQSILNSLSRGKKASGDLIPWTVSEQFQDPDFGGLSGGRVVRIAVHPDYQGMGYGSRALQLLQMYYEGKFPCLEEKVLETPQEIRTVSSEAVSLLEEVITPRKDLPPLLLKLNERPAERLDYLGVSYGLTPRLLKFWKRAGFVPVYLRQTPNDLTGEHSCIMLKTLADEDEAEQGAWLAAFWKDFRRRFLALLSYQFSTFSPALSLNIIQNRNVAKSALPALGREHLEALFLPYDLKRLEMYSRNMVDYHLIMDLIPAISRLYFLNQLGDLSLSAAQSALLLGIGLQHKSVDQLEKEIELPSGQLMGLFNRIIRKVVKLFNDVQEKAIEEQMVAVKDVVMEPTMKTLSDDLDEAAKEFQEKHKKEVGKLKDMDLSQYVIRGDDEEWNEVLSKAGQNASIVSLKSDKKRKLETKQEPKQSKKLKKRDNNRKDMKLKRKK
Put plainly: co-IP; cells lysed in NP-40 buffer; lysate at 1 mg/mL incubated overnight at 4 °C with anti-NAT10, anti-SRSF2 or IgG control antibody (10 µg); Protein A/G agarose beads 4 h at 4 °C; three washes with TBS; Western blot. Background: Immunoblotting shows a protein as a band on a membrane.

No constants are given. Whether binding was seen depends on the method and setting. In cells and extracts the contact can be indirect. Some entries that bind do so weakly or less than the wild type.

Turning to SRSF2 (from UniProt Q62093 1-221), the binding entry is “binds”.
